Data on 1 molecule can be found in article PMC6343231.

By UniProt entry, the sequences of proteins in these tests, tags left out.
UniProt P23443: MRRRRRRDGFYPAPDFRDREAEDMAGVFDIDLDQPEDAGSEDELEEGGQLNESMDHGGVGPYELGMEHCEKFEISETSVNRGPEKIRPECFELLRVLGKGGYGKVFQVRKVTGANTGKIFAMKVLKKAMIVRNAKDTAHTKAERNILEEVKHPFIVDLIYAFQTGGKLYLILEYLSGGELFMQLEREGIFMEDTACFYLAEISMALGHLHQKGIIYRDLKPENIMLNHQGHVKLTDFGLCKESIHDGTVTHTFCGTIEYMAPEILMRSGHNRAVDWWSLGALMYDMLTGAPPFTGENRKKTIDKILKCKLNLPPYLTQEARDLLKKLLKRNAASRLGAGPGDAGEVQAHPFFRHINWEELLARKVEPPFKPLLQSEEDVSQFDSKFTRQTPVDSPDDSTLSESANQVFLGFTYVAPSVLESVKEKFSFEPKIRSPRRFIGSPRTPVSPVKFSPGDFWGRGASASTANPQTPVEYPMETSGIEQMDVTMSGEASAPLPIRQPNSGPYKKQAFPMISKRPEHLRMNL

Results are given in words; binding and its absence hold for the method and conditions named. In cells and extracts the contact can be indirect. Some results given as binding are weak or reduced against the parent protein; the word gives no strength.

The target in this assay is Ribosomal protein S6 kinase 1 (S6K1) (human (endogenous in MCF-7)) (UniProt P23443). The assay can be described thus: co-IP; endogenous S6K1 precipitated from 1000 µg MCF-7 total cell lysate with anti-S6K1 mouse monoclonal antibodies on protein A/G PLUS agarose beads, overnight at 4°C; lysis buffer 20 mM Tris-HCl pH 7.5, 150 mM NaCl, 1% Triton X-100, 5 mM EDTA; three washes; blot with anti-TBR2.

B1: T-box brain protein 2 (TBR2) (protein, UniProt O95936-4 1-705)
chain: MQLGEQLLVSSVNLPGAHFYPLESARGGSGGSAGHLPSAAPSPQKLDLDKASKKFSGSLSCEAVSGEPAAASAGAPAAMLSDTDAGDAFASAAAVAKPGPPDGRKGSPCGEEELPSAAAAAAAAAAAAAATARYSMDSLSSERYYLQSPGPQGSELAAPCSLFPYQAAAGAPHGPVYPAPNGARYPYGSMLPPGGFPAAVCPPGRAQFGPGAGAGSGAGGSSGGGGGPGTYQYSQGAPLYGPYPGAAAAGSCGGLGGLGVPGSGFRAHVYLCNRPLWLKFHRHQTEMIITKQGRRMFPFLSFNINGLNPTAHYNVFVEVVLADPNHWRFQGGKWVTCGKADNNMQGNKMYVHPESPNTGSHWMRQEISFGKLKLTNNKGANNNNTQMIVLQSLHKYQPRLHIVEVTEDGVEDLNEPSKTQTFTFSETQFIAVTAYQNTDITQLKIDHNPFAKGFRDNYDSMYTASENDRLTPSPTDSPRSHQIVPGGRYGVQSFFPEPFVNTLPQARYYNGERTVPQTNGLLSPQQSEEVANPPQRWLVTPVQQPGTNKLDISSYESEYTSSTLLPYGIKSLPLQTSHALGYYPDPTFPAMAGWGGRGSYQRKMAAGLPWTSRTSPTVFSEDQLSKEKVKEEIGSSWIETPPSIKSLDSNDSGVYTSACKRRRLSPSNSSNENSPSIKCEDINAEEYSKDTSKGMGGYYAFYTTP
For B1, the binding entry is on record as “binds”.
